The record followed here is paper PMC6554949, “Arabidopsis thaliana organelles mimic the T7 phage DNA replisome with specific interactions between Twinkle protein and DNA polymerases Pol1A and Pol1B” (BMC Plant Biology, 2019).

Assay [1] concerns the target T1, Arabidopsis DNA polymerase 1B (yeast two-hybrid construct of the tri-alanine experiment) (Arabidopsis thaliana) (UniProt Q84ND9).
T1 sequence: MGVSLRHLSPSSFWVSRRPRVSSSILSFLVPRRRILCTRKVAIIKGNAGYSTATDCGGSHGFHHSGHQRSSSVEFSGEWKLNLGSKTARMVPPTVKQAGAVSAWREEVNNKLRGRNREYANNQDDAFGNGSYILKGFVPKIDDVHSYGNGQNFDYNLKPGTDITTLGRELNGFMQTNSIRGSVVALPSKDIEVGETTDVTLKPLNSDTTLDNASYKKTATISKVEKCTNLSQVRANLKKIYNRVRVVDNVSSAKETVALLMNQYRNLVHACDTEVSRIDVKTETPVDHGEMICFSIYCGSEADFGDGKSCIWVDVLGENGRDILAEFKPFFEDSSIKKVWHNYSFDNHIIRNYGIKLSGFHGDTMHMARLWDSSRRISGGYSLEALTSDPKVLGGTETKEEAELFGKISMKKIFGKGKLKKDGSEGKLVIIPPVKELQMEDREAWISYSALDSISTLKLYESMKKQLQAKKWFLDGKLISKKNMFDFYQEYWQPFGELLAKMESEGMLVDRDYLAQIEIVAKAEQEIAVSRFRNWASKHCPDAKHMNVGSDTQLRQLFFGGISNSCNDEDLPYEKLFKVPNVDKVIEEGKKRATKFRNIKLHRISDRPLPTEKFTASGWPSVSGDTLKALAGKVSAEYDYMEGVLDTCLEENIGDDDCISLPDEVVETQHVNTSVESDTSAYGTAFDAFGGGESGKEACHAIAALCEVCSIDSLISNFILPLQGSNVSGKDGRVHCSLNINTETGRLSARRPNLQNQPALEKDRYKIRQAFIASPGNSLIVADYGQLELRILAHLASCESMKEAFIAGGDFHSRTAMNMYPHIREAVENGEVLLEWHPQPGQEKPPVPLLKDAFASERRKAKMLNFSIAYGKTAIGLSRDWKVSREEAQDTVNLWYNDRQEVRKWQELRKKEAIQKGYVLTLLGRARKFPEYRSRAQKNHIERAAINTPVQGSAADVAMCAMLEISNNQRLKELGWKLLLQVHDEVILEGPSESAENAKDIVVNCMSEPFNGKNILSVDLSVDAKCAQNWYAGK
In words: two-hybrid; tri-alanine mutants in pGAD or pGBK transformed into yeast, interaction measured on selective media.

The target of assay [2] is T2, Arabidopsis DNA polymerase 1A (yeast two-hybrid construct, parent of the tri-alanine mutants) (Arabidopsis thaliana) (UniProt F4I6M1).
T2 sequence: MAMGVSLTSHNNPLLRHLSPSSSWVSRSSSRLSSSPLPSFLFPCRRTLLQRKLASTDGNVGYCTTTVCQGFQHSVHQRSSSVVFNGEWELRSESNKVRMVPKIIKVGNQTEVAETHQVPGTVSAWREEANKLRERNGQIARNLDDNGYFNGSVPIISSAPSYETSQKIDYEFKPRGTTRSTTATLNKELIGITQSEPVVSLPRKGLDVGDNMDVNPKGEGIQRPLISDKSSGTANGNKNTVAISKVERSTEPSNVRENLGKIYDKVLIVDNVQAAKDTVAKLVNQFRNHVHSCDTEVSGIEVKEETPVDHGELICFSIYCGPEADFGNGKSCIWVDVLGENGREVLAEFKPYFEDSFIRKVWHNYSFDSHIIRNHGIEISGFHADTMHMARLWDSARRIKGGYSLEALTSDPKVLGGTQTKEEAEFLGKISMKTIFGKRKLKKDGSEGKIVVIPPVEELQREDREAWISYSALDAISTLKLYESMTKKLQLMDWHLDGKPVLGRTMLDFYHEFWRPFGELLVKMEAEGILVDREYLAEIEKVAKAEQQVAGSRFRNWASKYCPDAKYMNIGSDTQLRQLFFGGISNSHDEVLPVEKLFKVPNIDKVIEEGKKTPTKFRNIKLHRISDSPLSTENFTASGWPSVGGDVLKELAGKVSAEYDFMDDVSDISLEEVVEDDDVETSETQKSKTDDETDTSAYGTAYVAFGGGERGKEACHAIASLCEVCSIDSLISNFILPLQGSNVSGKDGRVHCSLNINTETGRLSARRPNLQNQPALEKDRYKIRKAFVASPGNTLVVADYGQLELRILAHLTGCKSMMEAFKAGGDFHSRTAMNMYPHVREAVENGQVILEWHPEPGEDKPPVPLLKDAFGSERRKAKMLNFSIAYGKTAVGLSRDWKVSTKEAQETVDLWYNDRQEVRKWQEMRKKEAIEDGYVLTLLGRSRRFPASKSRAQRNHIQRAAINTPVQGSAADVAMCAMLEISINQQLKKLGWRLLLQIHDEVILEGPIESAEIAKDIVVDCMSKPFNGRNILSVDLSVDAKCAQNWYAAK
The assay is described as above.

These are yes or no findings as the source states them, for the method shown. Some entries that bind do so weakly or less than the wild type.

B1: Arabidopsis Twinkle DNA primase/helicase (yeast two-hybrid construct, parent of the tri-alanine mutants) (protein, UniProt B5X582 1-709)
chain: MRFLLRLPQIHFRKLSCSMSVLMGSKQFLEFCLLPSFASYPSSPSYSSSRQVSSVSRRFRPVLASRPVSKNSPYYQRTNGLSSYNSIPRVPTPVDTEVEADKRVVLSRLVTLRRKLAEQGVDAENCPPGQHSGLICPTCEGGNSGEKSLSLFIAPDGSSATWNCFRGKCGLKGGVRADGGLASADPIEKVERKITVEGIELEPLCDEIQDYFAARAISRKTLERNRVMQKRIGDEIVIAFTYWQRGELVSCKYRSLTKMFFQERKTRRILYGLDDIEKTSEVIIVEGEIDKLAMEEAGFLNCVSVPDGAPAKVSSKEIPSEDKDTKYKFLWNCNDYLKKASRIVIATDGDGPGQAMAEEIARRLGKERCWRVKWPKKSEDEHFKDANEVLMSKGPHLLKEAILDAEPYPILGLFSFKDFFDEIDAYYDRTHGHEYGVSTGWKNLDNLYSVVPGELTVVTGIPNSGKSEWIDAMLCNLNHSVGWKFALCSMENKVRDHARKLLEKHIKKPFFDADYGRSVQRMSVEEKDEGKKWLNDTFYPIRCEMDSLPSIDWVLERAKAAVLRYGIRGLVIDPYNELDHQRTPRQTETEYVSQMLTKIKRFSQHHSCHVWFVAHPKQLQHWDGGAPNLYDISGSAHFINKCDNGIIVHRNRDENAGPLDLVQIGVRKVRNKVAGQIGDAYLCYDRTTGSYSDSPVTPGMPERRSPKRY
For the molecule B1, the binding entry in assay [1] and in assay [2] was “binds” throughout.
